Tests used:
in vivo = conditions: mouse, iv
mice = mice (i.v.)

SMILES: CCn1cc(C(=O)O)c(=O)c2cc(F)c(N3CCN(C)CC3)cc21 [1-ethyl-6-fluoro-4-oxo-7-(4-methyl-1-piperazinyl)quinoline-3-carboxylic acid]
- LD50 (in vivo): 225 mg/kg
- toxicity (in words) (mice): comparatively high toxicity
